Laboratory results from patent US11730819B2, “Peptide derivatives having novel linkage structures” (priority 2016, dated 2023).
Some entries share one result that the patent states for a list of compounds. Part of at least one peptide drawing is inferred or uncertain, most often the ends.

Tested on: HT1080 tumor cells
Assay: In vivo efficacy against HT1080 tumors in BALB/c nude mice
Conditions: biw dosing, BALB/c nude mice with HT1080 tumors
Method: HT1080 tumor cells were maintained in vitro as a monolayer culture in EMEM medium supplemented with 10% heat inactivated fetal bovine serum at 37 C in an atmosphere of 5% CO2 and air. The tumor cells were routinely subcultured twice weekly by trypsin-EDTA treatment. The cells growing in an exponential growth phase were harvested and counted for tumor inoculation.
BALB/c nude mice were inoculated subcutaneously at the right flank with HT1080 tumor cells […] in 0.2 ml of PBS for tumor development. 39 animals were randomized when the average tumor volume reached […].
The BDC compounds were formulated at 0.03 mg/ml in a vehicle buffer containing 25 mM histidine and 10% Sucrose. The formulations were administered twice weekly (biw) at 0.3, 1, 3 and 10 mg/kg. Tumor volume and body weight were measured up to 14 days from the first dosing.

Row | SMILES | tolerated dose
1 | CC[C@H](C)[C@@H]([C@@H](CC(=O)N1CCC[C@H]1[C@H](OC)[C@@H](C)C(=O)N[C@H](C)[C@@H](O)c1ccccc1)OC)N(C)C(=O)[C@@H](NC(=O)[C@H](C(C)C)N(C)C(=O)OCc1ccc(NC(=O)[C@H](CCCNC(N)=O)NC(=O)[C@@H](NC(=O)Cn2cc(CCC(=O)NCCC(=O)N(C)CC(=O)N(C)CC(=O)N(C)CC(=O)N(C)CC(=O)N(C)CC(=O)N(C)CC(=O)N(C)CC(=O)N(C)CC(=O)N(C)CC(=O)N(C)CC(=O)N[C@@H](C)C(=O)N[C@H]3CN(C)Cc4cc5cc(c4)CN(C)C[C@@H](C(N)=O)NC(=O)[C@H](C(C)(C)C)NC(=O)[C@H](CC(=O)O)NC(=O)[C@H](Cc4ccc(O)cc4)NC(=O)[C@H](Cc4ccccc4)NC(=O)[C@H](CC(=O)O)NC(=O)[C@H](CCC(=O)O)NC(=O)[C@H](CSC5)NC(=O)[C@@H](C)NC(=O)[C@H](Cc4cccc5ccccc45)NC(=O)[C@H](CCC(=O)O)NC(=O)[C@H](CC(N)=O)NC(=O)[C@@H](C)NC3=O)nn2)C(C)C)cc1)C(C)C [BT17BDC-61] | up to 10 mg/kg
2 | CC[C@H](C)[C@@H]([C@@H](CC(=O)N1CCC[C@H]1[C@H](OC)[C@@H](C)C(=O)N[C@H](C)[C@@H](O)c1ccccc1)OC)N(C)C(=O)[C@@H](NC(=O)[C@H](C(C)C)N(C)C(=O)OCc1ccc(NC(=O)[C@H](CCCNC(N)=O)NC(=O)[C@@H](NC(=O)Cn2cc(CCC(=O)NCCC(=O)N(C)CC(=O)N(C)CC(=O)N(C)CC(=O)N(C)CC(=O)N(C)CC(=O)N(C)CC(=O)N(C)CC(=O)N(C)CC(=O)N(C)CC(=O)N(C)CC(=O)N[C@@H](C)C(=O)N[C@H]3CNCc4cc5cc(c4)CSC[C@H](NC(=O)[C@@H](C)NC(=O)[C@H](Cc4cccc6ccccc46)NC(=O)[C@H](CCC(=O)O)NC(=O)[C@H](CC(N)=O)NC(=O)[C@@H](C)NC3=O)C(=O)N[C@@H](CCC(=O)O)C(=O)N[C@@H](CC(=O)O)C(=O)N[C@@H](Cc3ccccc3)C(=O)N[C@@H](Cc3ccc(O)cc3)C(=O)N[C@@H](CC(=O)O)C(=O)N[C@@H](C(C)(C)C)C(=O)N[C@H](C(N)=O)CNC5)nn2)C(C)C)cc1)C(C)C [BT17BDC-53] | up to 10 mg/kg
3 | CC[C@H](C)[C@@H]([C@@H](CC(=O)N1CCC[C@H]1[C@H](OC)[C@@H](C)C(=O)N[C@H](C)[C@@H](O)c1ccccc1)OC)N(C)C(=O)[C@@H](NC(=O)[C@H](C(C)C)N(C)C(=O)OCc1ccc(NC(=O)[C@H](CCCNC(N)=O)NC(=O)[C@@H](NC(=O)CCCC(=O)NCCC(=O)N(C)CC(=O)N(C)CC(=O)N(C)CC(=O)N(C)CC(=O)N(C)CC(=O)N(C)CC(=O)N(C)CC(=O)N(C)CC(=O)N(C)CC(=O)N(C)CC(=O)N[C@@H](C)C(=O)N[C@H]2CN(C)Cc3cc4cc(c3)CN(C)C[C@@H](C(N)=O)NC(=O)[C@H](C(C)(C)C)NC(=O)[C@H](CC(=O)O)NC(=O)[C@H](Cc3ccc(O)cc3)NC(=O)[C@H](Cc3ccccc3)NC(=O)[C@H](CC(=O)O)NC(=O)[C@H](CCC(=O)O)NC(=O)[C@H](CSC4)NC(=O)[C@@H](C)NC(=O)[C@H](Cc3cccc4ccccc34)NC(=O)[C@H](CCC(=O)O)NC(=O)[C@H](CC(N)=O)NC(=O)[C@@H](C)NC2=O)C(C)C)cc1)C(C)C [BT17BDC-68] | up to 10 mg/kg
